In article PMC8816944:
These are yes or no findings as the source states them, for the method shown. In cells and extracts the contact can be indirect. Some results given as binding are weak or reduced against the parent protein; the word gives no strength. Tags and fused reporters may be left off the sequences shown.

Target: T1, MLKL fused C-terminally to the double Strep-tag, inducibly expressed in MLKL KO HT-29 cells (human) (UniProt Q8NB16)
T1 sequence: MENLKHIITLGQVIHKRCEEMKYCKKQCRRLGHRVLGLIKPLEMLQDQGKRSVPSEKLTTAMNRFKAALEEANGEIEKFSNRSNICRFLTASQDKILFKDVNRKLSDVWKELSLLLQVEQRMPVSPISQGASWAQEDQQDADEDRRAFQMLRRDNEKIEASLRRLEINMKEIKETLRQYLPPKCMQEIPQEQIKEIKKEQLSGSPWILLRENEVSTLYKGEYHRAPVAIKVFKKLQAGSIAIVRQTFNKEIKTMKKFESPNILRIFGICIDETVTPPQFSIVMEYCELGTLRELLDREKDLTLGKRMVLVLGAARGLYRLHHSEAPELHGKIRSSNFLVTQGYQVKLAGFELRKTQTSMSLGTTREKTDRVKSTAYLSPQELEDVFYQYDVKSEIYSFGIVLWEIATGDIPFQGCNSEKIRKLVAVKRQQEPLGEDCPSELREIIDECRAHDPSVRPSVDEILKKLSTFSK
Test: pull-down; MLKL KO HT-29 cells inducibly expressing MLKL with C-terminal double Strep-tag, TBZ treatment, with or without expression of ITCH; extraction in a buffer containing 1% Brij; western blot

B1: MVB12B, in HT-29 cells (protein, UniProt Q9H7P6 1-319)
chain: MRSCFCVRRSRDPPPPQPPPPPPQRGTDQSTMPEVKDLSEALPETSMDPITGVGVVASRNRAPTGYDVVAQTADGVDADLWKDGLFKSKVTRYLCFTRSFSKENSHLGNVLVDMKLIDIKDTLPVGFIPIQETVDTQEVAFRKKRLCIKFIPRDSTEAAICDIRIMGRTKQAPPQYTFIGELNSMGIWYRMGRVPRNHDSSQPTTPSQSSAASTPAPNLPRHISLTLPATFRGRNSTRTDYEYQHSNLYAISAMDGVPFMISEKFSCVPESMQPFDLLGITIKSLAEIEKEYEYSFRTEQSAAARLPPSPTRCQQIPQS
B1 was tested, and the binding was “binds”.
